Measured values published in the supplement of paper PMC12819154, “High-throughput peptide-centric local stability assay extends protein–ligand identification to membrane proteins, tissues and bacteria” (Nature Structural & Molecular Biology, 2025).
The list shows a part of the results. Most entries show no effect beyond the scatter of the controls.

The chains behind the UniProt entries cited, without tags or fusion partners. Where a name states a change or a piece, a line headed by the entry shows the natural chain unless it says otherwise.
UniProt P11276, whole entry: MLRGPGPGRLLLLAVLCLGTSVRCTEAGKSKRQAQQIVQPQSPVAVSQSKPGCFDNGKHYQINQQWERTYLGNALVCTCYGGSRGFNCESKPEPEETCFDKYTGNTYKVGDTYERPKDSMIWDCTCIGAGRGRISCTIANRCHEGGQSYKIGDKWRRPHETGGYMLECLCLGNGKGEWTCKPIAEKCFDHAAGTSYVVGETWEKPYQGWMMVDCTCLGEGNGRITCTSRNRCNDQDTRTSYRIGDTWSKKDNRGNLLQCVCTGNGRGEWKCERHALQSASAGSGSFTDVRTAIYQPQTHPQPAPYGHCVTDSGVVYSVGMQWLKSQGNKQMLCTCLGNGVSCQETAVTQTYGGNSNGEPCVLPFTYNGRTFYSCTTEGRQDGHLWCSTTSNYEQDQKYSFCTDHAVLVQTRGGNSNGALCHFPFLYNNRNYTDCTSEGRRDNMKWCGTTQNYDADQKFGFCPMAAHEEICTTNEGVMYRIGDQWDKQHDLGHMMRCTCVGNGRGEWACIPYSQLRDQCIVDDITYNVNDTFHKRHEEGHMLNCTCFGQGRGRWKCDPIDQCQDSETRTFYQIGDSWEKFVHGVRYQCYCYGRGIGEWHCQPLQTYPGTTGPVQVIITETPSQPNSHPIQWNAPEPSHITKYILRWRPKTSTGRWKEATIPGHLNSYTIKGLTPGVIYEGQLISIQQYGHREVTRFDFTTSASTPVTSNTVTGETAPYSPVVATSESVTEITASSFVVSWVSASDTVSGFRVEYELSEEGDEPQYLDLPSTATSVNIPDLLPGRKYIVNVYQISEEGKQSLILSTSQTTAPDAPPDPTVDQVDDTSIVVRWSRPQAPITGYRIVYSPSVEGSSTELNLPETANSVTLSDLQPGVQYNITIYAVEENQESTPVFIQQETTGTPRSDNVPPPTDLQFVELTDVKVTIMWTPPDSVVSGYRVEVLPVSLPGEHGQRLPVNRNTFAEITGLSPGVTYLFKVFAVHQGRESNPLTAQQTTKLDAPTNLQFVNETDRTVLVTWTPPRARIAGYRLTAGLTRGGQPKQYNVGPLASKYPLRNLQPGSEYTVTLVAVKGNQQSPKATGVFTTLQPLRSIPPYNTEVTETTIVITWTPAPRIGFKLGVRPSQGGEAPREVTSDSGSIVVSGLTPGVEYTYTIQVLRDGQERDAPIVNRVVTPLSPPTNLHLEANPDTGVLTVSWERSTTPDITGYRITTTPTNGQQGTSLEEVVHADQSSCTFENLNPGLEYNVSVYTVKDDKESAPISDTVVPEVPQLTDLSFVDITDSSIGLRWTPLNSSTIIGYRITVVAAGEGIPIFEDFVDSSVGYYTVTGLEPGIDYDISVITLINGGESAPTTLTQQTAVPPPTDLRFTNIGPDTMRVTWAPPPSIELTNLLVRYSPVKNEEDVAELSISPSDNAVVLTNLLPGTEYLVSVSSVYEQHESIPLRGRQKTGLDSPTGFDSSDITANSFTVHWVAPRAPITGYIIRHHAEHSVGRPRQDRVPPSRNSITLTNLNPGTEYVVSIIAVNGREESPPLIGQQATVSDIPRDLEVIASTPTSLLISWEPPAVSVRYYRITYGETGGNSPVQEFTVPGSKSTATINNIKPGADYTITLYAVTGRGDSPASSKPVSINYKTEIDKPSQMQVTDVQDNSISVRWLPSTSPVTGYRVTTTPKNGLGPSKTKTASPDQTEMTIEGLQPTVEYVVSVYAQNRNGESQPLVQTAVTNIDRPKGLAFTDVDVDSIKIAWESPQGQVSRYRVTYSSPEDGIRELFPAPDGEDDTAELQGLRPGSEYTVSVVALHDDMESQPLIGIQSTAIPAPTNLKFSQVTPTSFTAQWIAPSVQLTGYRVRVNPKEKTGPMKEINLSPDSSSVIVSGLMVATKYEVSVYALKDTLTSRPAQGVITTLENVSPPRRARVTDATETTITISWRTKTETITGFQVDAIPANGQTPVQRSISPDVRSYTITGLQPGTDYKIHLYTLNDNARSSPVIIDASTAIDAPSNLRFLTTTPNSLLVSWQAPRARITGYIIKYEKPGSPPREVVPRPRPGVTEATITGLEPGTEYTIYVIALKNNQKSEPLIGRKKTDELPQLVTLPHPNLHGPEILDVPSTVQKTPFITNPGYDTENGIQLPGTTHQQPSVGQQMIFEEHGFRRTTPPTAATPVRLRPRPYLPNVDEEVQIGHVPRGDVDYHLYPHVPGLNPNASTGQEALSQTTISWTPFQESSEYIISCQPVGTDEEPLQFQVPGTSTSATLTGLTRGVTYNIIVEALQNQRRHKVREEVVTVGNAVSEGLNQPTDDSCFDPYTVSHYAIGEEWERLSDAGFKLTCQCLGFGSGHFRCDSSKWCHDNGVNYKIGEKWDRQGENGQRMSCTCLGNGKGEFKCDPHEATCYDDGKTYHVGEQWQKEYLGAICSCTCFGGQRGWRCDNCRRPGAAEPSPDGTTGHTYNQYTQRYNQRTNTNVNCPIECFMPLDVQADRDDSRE
UniProt O88962: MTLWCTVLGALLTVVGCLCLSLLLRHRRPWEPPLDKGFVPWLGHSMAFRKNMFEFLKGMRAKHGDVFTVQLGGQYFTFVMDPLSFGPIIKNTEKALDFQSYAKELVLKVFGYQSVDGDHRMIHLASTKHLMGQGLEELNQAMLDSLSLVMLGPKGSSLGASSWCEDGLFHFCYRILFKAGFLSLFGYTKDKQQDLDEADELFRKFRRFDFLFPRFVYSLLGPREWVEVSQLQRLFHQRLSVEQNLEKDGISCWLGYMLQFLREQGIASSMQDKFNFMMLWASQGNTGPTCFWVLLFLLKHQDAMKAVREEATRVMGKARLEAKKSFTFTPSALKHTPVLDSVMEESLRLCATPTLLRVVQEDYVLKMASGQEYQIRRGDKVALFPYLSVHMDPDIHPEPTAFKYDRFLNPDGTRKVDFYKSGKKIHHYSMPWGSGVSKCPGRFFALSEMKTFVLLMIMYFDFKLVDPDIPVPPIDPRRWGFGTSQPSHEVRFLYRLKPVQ
UniProt P13808: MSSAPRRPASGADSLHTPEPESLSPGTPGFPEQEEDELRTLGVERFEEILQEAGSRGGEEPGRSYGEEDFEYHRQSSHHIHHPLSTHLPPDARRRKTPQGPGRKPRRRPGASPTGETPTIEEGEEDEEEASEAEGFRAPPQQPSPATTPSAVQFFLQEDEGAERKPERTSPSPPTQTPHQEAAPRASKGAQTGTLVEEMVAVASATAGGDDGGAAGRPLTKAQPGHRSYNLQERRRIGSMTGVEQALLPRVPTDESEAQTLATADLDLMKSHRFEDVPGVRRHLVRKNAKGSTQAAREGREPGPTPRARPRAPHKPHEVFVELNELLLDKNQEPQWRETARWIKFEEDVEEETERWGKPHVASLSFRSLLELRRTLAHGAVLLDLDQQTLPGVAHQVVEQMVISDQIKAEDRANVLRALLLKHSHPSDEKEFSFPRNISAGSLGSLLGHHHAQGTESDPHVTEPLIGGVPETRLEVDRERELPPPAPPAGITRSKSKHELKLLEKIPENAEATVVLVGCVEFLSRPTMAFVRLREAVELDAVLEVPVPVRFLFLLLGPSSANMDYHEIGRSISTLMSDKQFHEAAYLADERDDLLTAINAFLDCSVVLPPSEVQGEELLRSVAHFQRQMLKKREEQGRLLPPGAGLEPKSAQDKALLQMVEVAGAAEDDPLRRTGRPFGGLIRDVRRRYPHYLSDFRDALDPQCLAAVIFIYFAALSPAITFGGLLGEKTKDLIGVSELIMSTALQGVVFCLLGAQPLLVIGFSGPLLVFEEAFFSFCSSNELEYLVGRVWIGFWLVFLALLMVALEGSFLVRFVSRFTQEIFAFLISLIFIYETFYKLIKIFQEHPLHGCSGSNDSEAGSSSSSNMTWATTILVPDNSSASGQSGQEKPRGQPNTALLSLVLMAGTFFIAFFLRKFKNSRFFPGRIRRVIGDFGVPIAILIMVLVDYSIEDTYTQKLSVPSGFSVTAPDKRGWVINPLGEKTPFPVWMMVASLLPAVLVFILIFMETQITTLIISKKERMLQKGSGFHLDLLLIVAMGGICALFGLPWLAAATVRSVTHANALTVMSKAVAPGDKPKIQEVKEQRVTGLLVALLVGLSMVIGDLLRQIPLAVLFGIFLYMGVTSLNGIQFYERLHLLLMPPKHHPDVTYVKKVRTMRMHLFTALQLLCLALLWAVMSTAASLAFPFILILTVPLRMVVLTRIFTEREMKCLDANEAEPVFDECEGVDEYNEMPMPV
UniProt P00375: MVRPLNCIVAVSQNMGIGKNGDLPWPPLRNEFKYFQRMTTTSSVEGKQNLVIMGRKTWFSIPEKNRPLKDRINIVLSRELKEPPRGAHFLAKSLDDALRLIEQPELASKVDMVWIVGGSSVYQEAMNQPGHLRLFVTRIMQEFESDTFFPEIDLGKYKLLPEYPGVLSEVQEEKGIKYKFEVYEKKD
UniProt P04370, whole entry: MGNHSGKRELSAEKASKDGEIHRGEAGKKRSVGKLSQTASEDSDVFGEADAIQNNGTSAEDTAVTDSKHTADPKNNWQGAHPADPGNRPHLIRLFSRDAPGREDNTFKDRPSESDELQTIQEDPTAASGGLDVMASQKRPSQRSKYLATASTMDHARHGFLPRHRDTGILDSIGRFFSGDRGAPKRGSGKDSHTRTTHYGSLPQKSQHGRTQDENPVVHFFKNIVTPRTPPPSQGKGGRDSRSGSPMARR
UniProt P00405, whole entry: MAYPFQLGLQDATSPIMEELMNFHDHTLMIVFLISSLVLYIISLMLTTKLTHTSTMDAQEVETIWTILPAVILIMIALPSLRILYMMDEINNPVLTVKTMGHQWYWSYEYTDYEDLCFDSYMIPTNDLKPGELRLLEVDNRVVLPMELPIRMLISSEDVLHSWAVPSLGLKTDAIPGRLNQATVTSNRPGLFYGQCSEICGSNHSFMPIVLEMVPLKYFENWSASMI
UniProt P15327: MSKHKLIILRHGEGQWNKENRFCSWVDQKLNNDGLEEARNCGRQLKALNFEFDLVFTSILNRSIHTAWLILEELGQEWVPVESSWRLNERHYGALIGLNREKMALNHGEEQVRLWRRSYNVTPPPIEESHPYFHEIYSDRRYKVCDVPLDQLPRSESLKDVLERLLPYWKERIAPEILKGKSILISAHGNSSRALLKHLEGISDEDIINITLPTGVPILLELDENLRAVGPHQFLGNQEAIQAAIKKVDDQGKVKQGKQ
UniProt P05366: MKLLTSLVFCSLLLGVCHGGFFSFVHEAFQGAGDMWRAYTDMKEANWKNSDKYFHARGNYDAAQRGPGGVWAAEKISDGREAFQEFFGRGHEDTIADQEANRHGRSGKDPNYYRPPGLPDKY
UniProt P00342: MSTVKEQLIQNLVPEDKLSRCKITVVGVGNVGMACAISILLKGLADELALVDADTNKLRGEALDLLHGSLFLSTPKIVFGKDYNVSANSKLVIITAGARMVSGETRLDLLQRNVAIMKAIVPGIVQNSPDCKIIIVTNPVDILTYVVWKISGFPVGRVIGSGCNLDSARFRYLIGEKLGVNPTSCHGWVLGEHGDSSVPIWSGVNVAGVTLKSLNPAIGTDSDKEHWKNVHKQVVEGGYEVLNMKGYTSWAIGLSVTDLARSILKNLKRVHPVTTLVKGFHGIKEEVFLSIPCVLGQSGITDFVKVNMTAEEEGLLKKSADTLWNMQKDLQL
UniProt P0C673: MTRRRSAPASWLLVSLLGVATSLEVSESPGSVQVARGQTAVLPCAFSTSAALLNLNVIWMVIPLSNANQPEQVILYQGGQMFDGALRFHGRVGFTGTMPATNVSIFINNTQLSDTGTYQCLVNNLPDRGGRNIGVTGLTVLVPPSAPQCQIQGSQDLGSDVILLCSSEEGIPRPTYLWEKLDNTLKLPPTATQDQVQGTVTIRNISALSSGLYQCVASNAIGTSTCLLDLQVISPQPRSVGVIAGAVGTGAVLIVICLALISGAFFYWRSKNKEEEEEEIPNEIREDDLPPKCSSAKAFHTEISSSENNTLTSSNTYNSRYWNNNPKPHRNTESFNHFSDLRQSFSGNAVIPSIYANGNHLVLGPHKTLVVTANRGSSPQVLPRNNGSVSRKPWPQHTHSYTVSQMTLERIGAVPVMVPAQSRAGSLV

Each target was assayed with CN[C@@H]1C[C@H]2O[C@@](C)([C@@H]1OC)n1c3ccccc3c3c4c(c5c6ccccc6n2c5c31)C(=O)NC4 [staurosporine] (assay: log2 fold change of tryptic peptide abundance, ligand vs vehicle (limited proteolysis) (log2 ratio); higher = more trypsin-susceptible (destabilized)). Settings: ligand concentration: 20 uM; sample: mouse liver crude lysate; replicate design: treated separately.

Target	log2 fold change
UniProt P11276 (peptide sequence: GVTYNIIVEALQNQRR, peptide start residue: 2255)	0.227
UniProt O88962 (peptide sequence: GFVPWLGHSMAFR, peptide start residue: 37)	0.287
UniProt P13808 (peptide sequence: LLPPGAGLEPK, peptide start residue: 639)	-0.248
UniProt P00375 (peptide sequence: VRPLNCIVAVSQNMGIGK, peptide start residue: 2)	-0.0814
UniProt P04370 (peptide sequence: YLATASTMDHAR, peptide start residue: 146)	0.122
UniProt P00405 (peptide sequence: VVLPMELPIR, peptide start residue: 142)	-0.235
UniProt P15327 (peptide sequence: MALNHGEEQVR, peptide start residue: 103)	0.169
UniProt P05366 (peptide sequence: GPGGVWAAEK, peptide start residue: 66)	0.109
UniProt P08775 (peptide sequence: MSVTEGGIK, peptide start residue: 34)	0.434
UniProt P00342 (peptide sequence: LVIITAGAR, peptide start residue: 91)	-0.147
UniProt P0C673 (peptide sequence: GSSPQVLPR, peptide start residue: 376)	0.334

Quoted at random: 2 entries already listed, in no set order.
Target	log2 fold change
UniProt P00342 (peptide sequence: LVIITAGAR, peptide start residue: 91)	-0.147
UniProt P13808 (peptide sequence: LLPPGAGLEPK, peptide start residue: 639)	-0.248
